The test has as its system Salmonella enterica serovar Typhimurium SL1344. The test is described as follows: bacterial growth OD600 after 18 h with compound and polymyxin B; higher = more bacterial growth (less inhibition). The settings on record: 50 µM, Mueller-Hinton broth.

The list shows a part of the results. These are raw signals, not scaled to a control.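 Primary screen: polymyxin B was added at a level permeabilizing Salmonella outer membranes while sparing inner membranes. DMSO wells, both with and without polymyxin B, established maximum growth. Plate-to-plate variation meant each plate was ranked on its own, and the lowest-OD600 compounds were selected as hits.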

As to `C=CCC(O)(CC=C)C(C)NC(=O)CCC1(Cc2ccc3ccccc3c2)CCC(=O)N1` (stereo not given), the “bacterial growth OD600” value (polymyxin B 0.75 µg/mL) came to 0.787.
Turning to `CCOC(=O)C1(Cc2ccccc2)CCN(Cc2ccccc2OC)CC1`, the “bacterial growth OD600” value (polymyxin B 1 µg/mL) amounted to 0.912.
Regarding `CCOC(=O)N1CCC(NC(=O)C2CC23CCN(C(=O)c2ccc(-c4ccccc4)cc2)CC3)CC1` (stereo not given), the “bacterial growth OD600” value (polymyxin B 0.75 µg/mL) was found to be 0.018.
As to `CC1=C(C(=O)N2CCC3(CCCN(Cc4ccc(F)c(F)c4)C3=O)C2)OCCO1` (stereo not given), the “bacterial growth OD600” value (polymyxin B 1 µg/mL) is 0.972.
Regarding `Cc1cc(C(=O)N2CCCC(N3CCN(c4cccc(Cl)c4)CC3)C2)nn1C` (stereo not given), the “bacterial growth OD600” value (polymyxin B 1 µg/mL) came to 0.862.
On the same count and under the same terms, under `CC(=O)N1CCC(C(=O)NC2CC(C)(C)Cc3c2cnn3-c2ccc(F)cc2)CC1` (stereo not given) stands 0.905.
In the case of `CC1(CCC(=O)N2CCC(C3CCN(Cc4cccc(F)c4F)CC3)C2)CC1` (stereo not given), the “bacterial growth OD600” value (polymyxin B 0.75 µg/mL) stood at 0.784.
In the case of `Cc1ccsc1C(=O)NCCN1Cc2ccccc2OC(c2ccccc2F)C1` (stereo not given), the “bacterial growth OD600” value (polymyxin B 0.75 µg/mL) was determined as 0.075.
As for `O=C1CCC(CCC(=O)N2CCCC(C(=O)c3cccnc3)C2)(Cc2ccc(Cl)cc2)N1` (stereo not given), for the setting “polymyxin B 0.75 µg/mL”, the “bacterial growth OD600” value stood at 0.896.
On the same count and under the same terms, the same measure for `O=C(c1ccc(NCC2CC2)nc1)N1CCCN(c2ncccn2)CC1`: 0.977.
Turning to `C=CCCC(=O)NC1CC(=O)N(CCc2cccc(Cl)c2)C1` (stereo not given), the “bacterial growth OD600” value (polymyxin B 1 µg/mL) amounted to 1.1.
`COc1cc(CN2CCN(Cc3cnn(C(C)C)c3)CC2CCO)cc(OC)c1` (stereo not given): the “bacterial growth OD600” value (polymyxin B 1 µg/mL) stood at 1.01.
Consider `COc1ccc(CN(Cc2ccncc2)C(=O)c2ccc3[nH]c(C)c(C)c3c2)cc1OCC1CCCCO1` (stereo not given), for which, where the note is “polymyxin B 0.75 µg/mL”, the “bacterial growth OD600” value is 0.821.
As for `Cc1nc2ccccc2n1Cc1cc(C(=O)N2C[C@@H](C)O[C@@H](C)C2)n[nH]1`, the “bacterial growth OD600” value (polymyxin B 1 µg/mL) was 0.871.
The same measure, in the same setting: under `Cc1cc(-c2nnc(CCC(=O)N3CCN(C4CCc5ccccc5C4)CC3)o2)no1` (stereo not given) stands 0.908.
Consider `O=C(NCCc1ccco1)c1cc(Cn2ccc3ccccc32)[nH]n1`, for which, under “polymyxin B 0.75 µg/mL”, the “bacterial growth OD600” value is 0.795.
In the case of `O=C(C1CCC1)N1CCCC(CCc2cccc(F)c2)C1` (stereo not given), the “bacterial growth OD600” value (polymyxin B 0.75 µg/mL) was 0.434.
For `CN1CCN(C(=O)c2coc(COc3cccc(F)c3F)n2)CC1`, the “bacterial growth OD600” value (polymyxin B 1 µg/mL) was 0.952.
For `Cc1ncsc1CCC(=O)N1CCC2(CCCN(C)C2=O)C1` (stereo not given), the “bacterial growth OD600” value (polymyxin B 1 µg/mL) was found to be 0.87.
Consider `CCOCc1cc(CN2CCC(n3nccc3NC(=O)C3CC3)CC2)ccc1OC`, for which, for the setting “polymyxin B 1 µg/mL”, the “bacterial growth OD600” value came to 0.924.
Take `COC(=O)[C@@H]1CCCN1C(=O)Cc1ccc(N2CCC(NCc3cnc4ccccn34)CC2)cc1`: the “bacterial growth OD600” value (polymyxin B 0.75 µg/mL) stood at 0.866.
For `Cc1ccc2c(C)c(C(=O)N(C)Cc3nonc3C)oc2c1C`, under “polymyxin B 1 µg/mL”, the “bacterial growth OD600” value worked out at 0.701.
With `COc1ccc2cc(CNCCc3cccc(Cl)c3)c(N3CCCC(CO)C3)nc2c1` (stereo not given), the “bacterial growth OD600” value (polymyxin B 0.75 µg/mL) was found to be 0.737.
For the compound `Cc1nonc1CN(C)Cc1cn(Cc2ccccc2)nc1-c1ccc2c(c1)OCO2`, for the setting “polymyxin B 1 µg/mL”, the “bacterial growth OD600” value came out at 0.012.
Consider `COCCCN1C(=O)CC(CC(=O)N2CCC(Cc3ccccc3)CC2)(c2ccccc2OC)C1=O` (stereo not given), for which, for the setting “polymyxin B 0.75 µg/mL”, the “bacterial growth OD600” value came out at 0.003.
For `O=C(NCC1(c2ccccc2)CCCCC1)c1cc(CN2CCCC(O)C2)on1` (stereo not given), the “bacterial growth OD600” value (polymyxin B 0.75 µg/mL) stood at 0.694.
With `O[C@@H]1CN(Cc2cc3ccccc3s2)CC[C@H]1N1CCN(c2ccccn2)CC1`, where the note is “polymyxin B 1 µg/mL”, the “bacterial growth OD600” value was 1.01.
As to `CCOC(=O)C1(CCc2ccccc2)CCN(Cc2cnn(C)c2C)CC1`, where the note is “polymyxin B 1 µg/mL”, the “bacterial growth OD600” value worked out at 0.924.
In the case of `COCCO[C@H]1[C@H](NC(=O)C(C)C)c2ccccc2C12CCN(C(=O)c1c(F)cccc1F)CC2`, where the note is “polymyxin B 0.75 µg/mL”, the “bacterial growth OD600” value turned out to be 0.79.
Take `Cc1ccc(C(=O)N2CCC3(CCCN(Cc4ccc(F)cc4)C3)C2)cn1` (stereo not given): the “bacterial growth OD600” value (polymyxin B 1 µg/mL) was found to be 0.91.

The values above are taken from the supplement of paper PMC12889115.
